From PubChem BioAssay AID540275 (National Center for Advancing Translational Sciences (NCATS), 2011)
Among all 320,000 compounds or so, about 620 (0.19%) were called active. Inconclusive results, whose numbers are uncertain, are shown with a selection of clear calls. No stated cut-off is given here; in the data, active means activation above about 80%; inconclusive means between about 30% and that limit; inactive means weaker than that.
Further: 0% is about no effect.

By UniProt entry, the sequences of proteins in these tests, tags left out.
UniProt Q8NER1, whole entry, looked up: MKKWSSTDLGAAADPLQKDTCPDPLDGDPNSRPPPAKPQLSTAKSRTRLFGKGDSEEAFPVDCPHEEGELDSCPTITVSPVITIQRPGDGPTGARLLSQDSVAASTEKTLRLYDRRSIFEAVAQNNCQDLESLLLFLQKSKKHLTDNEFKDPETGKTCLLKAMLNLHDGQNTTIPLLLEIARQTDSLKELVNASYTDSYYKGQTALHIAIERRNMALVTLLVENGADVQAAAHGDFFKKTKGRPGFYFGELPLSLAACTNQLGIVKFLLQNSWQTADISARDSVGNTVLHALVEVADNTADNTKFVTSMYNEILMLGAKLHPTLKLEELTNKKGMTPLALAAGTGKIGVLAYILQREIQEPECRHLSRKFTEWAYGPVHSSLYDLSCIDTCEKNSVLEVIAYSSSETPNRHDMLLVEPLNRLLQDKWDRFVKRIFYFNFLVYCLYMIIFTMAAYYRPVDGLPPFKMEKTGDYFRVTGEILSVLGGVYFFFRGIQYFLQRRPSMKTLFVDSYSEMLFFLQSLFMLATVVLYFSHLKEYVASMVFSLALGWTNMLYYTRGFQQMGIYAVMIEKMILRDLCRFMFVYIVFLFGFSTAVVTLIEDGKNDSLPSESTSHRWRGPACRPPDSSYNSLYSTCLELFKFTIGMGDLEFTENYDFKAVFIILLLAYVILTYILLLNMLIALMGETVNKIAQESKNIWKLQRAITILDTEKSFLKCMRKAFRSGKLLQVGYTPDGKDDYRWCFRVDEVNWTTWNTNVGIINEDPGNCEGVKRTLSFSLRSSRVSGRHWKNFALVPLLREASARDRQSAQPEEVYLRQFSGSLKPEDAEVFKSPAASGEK

Each molecule was assayed against Transient receptor potential cation channel subfamily V member 1 (Homo sapiens) (UniProt Q8NER1) (assay: HTS Assay for Compounds that Act as Agonists of the Vanilloid Receptor 1). Settings: TRPV1-expressing cells, Fluo-8 calcium influx, agonist mode; at 8.33 µM, stronger effect = higher value.
Method in brief: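 Fluo-8 calcium influx in TRPV1-expressing cells, kinetic read (ex 480/em 520 nm). Compound added and read 3 min for agonist activity, followed by capsaicin at EC20 final and 2 min further read for enhancement.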
CCOC(=O)C1=C(Nc2ccc(Cl)cc2)OCC1=O was tested, and the activation was inconclusive: 32.8%. COCCNC(=O)CCc1c(C)nc2c(-c3ccc(F)cc3)c(C)nn2c1C was tested, and the activation was inconclusive: 44.3%. COc1ccccc1C1c2[nH]c3ccccc3c2CCN1Cc1cnc(C)s1 (stereo not given) was tested, and the activation was inactive: 1.33%. For Nc1c(Cl)cc(C2=NCCn3nc4cc(C(F)(F)F)ccc4c32)cc1Cl, the activation was inactive: 16%. For CCN(CCCNC(=O)CN(C)S(=O)(=O)c1ccc2c(c1)CCC(=O)N2)c1cccc(C)c1, the activation was inconclusive: 57.5%. Cc1cc(OCc2nc(-c3ccncc3)no2)cc(C)c1Cl was tested, and the activation was inactive: 3.84%. With CC(=O)N1N=C(c2ccncc2)OC1(Cc1ccccc1)Cc1ccccc1 the activation was inconclusive: 57.9%. Cc1csc(NC(=O)c2ccc3ccccc3n2)n1 was tested, and the activation was inconclusive: 34.5%. CS(=O)(=O)c1ccc2nc(NC(=O)c3ccccc3)sc2c1 was tested, and the activation was inconclusive: 45.8%. In the case of Fc1ccc(NC(=S)N2CCN(c3cccc(C(F)(F)F)c3)CC2)cc1, the activation is reported as inconclusive: 36.9%. For N#Cc1c(-c2ccccc2)cc(-c2ccc(O)cc2)nc1N, the activation was inconclusive: 42.2%. With Cc1ccccc1C(=O)NC(=S)N(C)C1CCCCC1 the activation was inactive: 20.3%. N#Cc1cc2c(nc1SCC(=O)Nc1sc3c(c1C#N)CCC3)CCC2 was tested, and the activation was inactive: -1.88%. COc1ccc(CCNC(=O)COc2ccc(N(C)S(=O)(=O)c3ccc(C)cc3)cc2)cc1OC was tested, and the activation was inactive: -0.137%. With Cc1ccnc(NC(=O)/C=C/c2ccccc2Cl)c1 the activation was inconclusive: 41.6%. With Cc1ccccc1CSc1nc2n(n1)C(c1cccs1)C1=C(CCCC1=O)N2 (stereo not given) the activation was inconclusive: 32.6%. For CN(Cc1ccccc1F)c1ccc(S(=O)(=O)N2CCCC2)cn1, the activation was inconclusive: 34.9%. With O=C(O)CP(=O)(O)O the activation was inactive: -1.97%. CCOC(=O)c1sc(NC(=O)CSc2nc(-c3ccco3)cc(C(F)(F)F)n2)c(C#N)c1C was tested, and the activation was inactive: -4.45%. In the case of COc1ccc(C2C=C(c3ccccc3)Nc3nc(CCCO)nn32)cc1 (stereo not given), the activation is reported as inconclusive: 31.2%. CN(Cc1c(C(=O)N/N=C/c2cccs2)nnn1-c1nonc1N)c1ccccc1 was tested, and the activation was inconclusive: 42.8%. In the case of O=C(c1ccc(-c2ccccc2Cl)o1)N1CCN(c2ccccc2O)CC1, the activation is reported as inconclusive: 31.7%. CNc1oc(/C=C/c2cccc(OC)c2)nc1C#N was tested, and the activation was inconclusive: 72%. In the case of O=C(Nc1ccc2c(c1)OCO2)N1CCN(c2ccccc2)CC1, the activation is reported as inconclusive: 47.7%. For Cc1cc(C(F)(F)F)nn1CC(=O)NNC(=S)Nc1ccc(F)cc1, the activation was inactive: 1.38%. COc1ccc(S(=O)(=O)N2CCCCC2)cc1C(C)C was tested, and the activation was inconclusive: 40.7%. With CCOC(=O)c1nn(-c2ccccc2)c2nnc(Cc3ccc(Cl)cc3)c(=O)n12 the activation was inactive: 21.9%. For Cc1ccccc1Sc1ncnc2onc(C)c12, the activation was inactive: 0.921%. In the case of CC(C)Oc1cccc(C(=O)Nc2ncn[nH]2)c1, the activation is reported as inactive: 2.88%. For O=[N+]([O-])c1ccc(N2N=C(c3ccco3)CC2c2ccccc2)cc1 (stereo not given), the activation was inactive: 6.88%. In the case of Cc1ccccc1C(=O)c1cccn1CC(=O)NC1CCCC(C)C1C (stereo not given), the activation is reported as inconclusive: 45.9%. O=C(Nc1cccc(F)c1)N1CCC(c2ccccc2)CC1 was tested, and the activation was inconclusive: 68.5%. With CC(C)NC(=O)/C(C#N)=C\c1ccc(N(C)C)o1 the activation was inconclusive: 31.8%. For CC(C)(C)n1ncc2c(=O)n(CC(=O)NCc3ccccc3)cnc21, the activation was inactive: -0.0935%. With O=c1oc2cc(O)ccc2cc1-c1nc2c(s1)CCc1ccccc1-2 the activation was active: 83.3%. In the case of Cc1ccc(NC(=O)CSCc2ccco2)cc1, the activation is reported as inconclusive: 40.5%. With Cc1ccc(S(=O)(=O)N(C)CC(=O)Nc2ccccc2N2CCCC2)cc1 the activation was inconclusive: 34.9%. In the case of CCn1cnc2cc(NCc3ccc(Br)cc3)ccc21, the activation is reported as inactive: 1.74%. In the case of CC(C)(C)C(=O)Nc1ccc2oc(-c3cc(F)c(F)cc3Cl)nc2c1, the activation is reported as inactive: 1.22%. For Cc1cc(C(=O)CSc2nnc(-c3ccco3)o2)c(C)n1Cc1ccco1, the activation was inactive: -1.35%. In the case of CC1(C)Cc2cccc(OCC(=O)Nc3cc(S(C)(=O)=O)ccc3Cl)c2O1, the activation is reported as inconclusive: 31%. CN1C(=O)c2cccc3c(N(C)C)ccc(c23)C1=O was tested, and the activation was inconclusive: 38.6%. With OCCC1CN(CC#Cc2ccccc2)CCN1C1CCCC1 (stereo not given) the activation was inactive: 1.25%. COc1ccc(CNC(=O)c2ccc(Br)o2)cc1 was tested, and the activation was inconclusive: 44.8%. Cc1ccc(-c2cn3nc(-c4ccccc4)c(-c4ccccc4)nc3n2)cc1 was tested, and the activation was inconclusive: 31.6%. CCN(CC)c1ccc(-n2c(C)cc(C=O)c2C)cc1 was tested, and the activation was inconclusive: 44.9%. For COc1ccc(C2CC(c3cccs3)=NN2C(=O)CSC2=NCCS2)cc1 (stereo not given), the activation was inconclusive: 36.8%. For COc1ccc(C(=O)Nc2cc(C(F)(F)F)ccc2-n2cnc3ccccc32)cc1, the activation was inconclusive: 61.8%. CCc1cc(Cn2nc(-c3ccccc3)cc2C(=O)NCc2ccc(C)cc2)on1 was tested, and the activation was inconclusive: 33.5%. With O=C(Nc1cccc(F)c1)Nc1ccc2c(c1)CCC2 the activation was inconclusive: 60.8%. For Cc1c(C(=O)N2CCCC2)oc2ccc(Br)cc12, the activation was inconclusive: 36.6%. In the case of O=C(Nc1ccc(N2CCOCC2)c(S(=O)(=O)Nc2cc(Cl)ccc2Cl)c1)c1cccnc1, the activation is reported as inactive: 2.2%. With CC(Oc1ccccc1)C(=O)NC1CCCCCCC1 (stereo not given) the activation was inconclusive: 32.3%. With COC(=O)c1c(NC(=O)CN2CCN(Cc3ccc4c(c3)OCO4)CC2)sc(C)c1C the activation was inactive: 4.17%. Cc1cccc(OCCCCn2c(CO)nc3ccccc32)c1 was tested, and the activation was inconclusive: 64.3%. COc1ccc([N+](=O)[O-])cc1NC(=O)C1(c2ccccc2)CCOCC1 was tested, and the activation was inconclusive: 57%. CCCNC(=O)c1cnc(Sc2ncc(C(F)(F)F)cc2Cl)n1C was tested, and the activation was inconclusive: 33.5%. In the case of COc1ccc(CCC(=O)N2CCN(c3ccccc3)CC2)cc1OC, the activation is reported as inconclusive: 54.7%. In the case of O=C(c1cccs1)N1CCCN(c2ncnc3scc(-c4ccccc4)c23)CC1, the activation is reported as inconclusive: 50.8%. With CCCN(CCC)S(=O)(=O)c1ccc(NC(=O)Cc2cccs2)cc1 the activation was inconclusive: 58.8%.
